Measured values published in patent publication US8735588B2, “Nematocidal sulfonamides” (E I Du Pont De Nemours and Company, priority 2009, dated 2014).
Some of these results come from one statement about several compounds together. For at least one compound, name, drawing or mass did not settle the structure.

Test system: southern root-knot nematode (Meloidogyne incognita)
Assay: Test A: control of southern root-knot nematode by soil application, cucumber seedlings, root gall formation
Format: in vivo
Conditions: about 250 J2 larvae, 7 days at 27° C., no significant phytotoxicity
[1] = 50 ppm active ingredient applied to soil
[2] = 250 ppm active ingredient applied to soil

| Compound | reduction in root galling, compared to solvent-treated controls (good levels of plant protection) [1] [%] | reduction in root galling, compared to solvent-treated controls (good levels of plant protection) [2] [%] |
| --- | --- | --- |
| O=C(NS(=O)(=O)c1c(F)cccc1F)c1cn2cc(C(F)(F)F)cc(Cl)c2n1 [Compound 117] | ≥ 50 | ≥ 50 |
| Cc1cc(C)c(S(=O)(=O)NC(=O)c2cn3cc(C(F)(F)F)cc(Cl)c3n2)c(C)c1 [Compound 120] | – | ≥ 50 |
| O=C(NS(=O)(=O)c1ccc(Br)cc1OC(F)(F)F)c1cn2cc(C(F)(F)F)cc(Cl)c2n1 [Compound 126] | – | ≥ 50 |
| Cc1ccc(S(=O)(=O)NC(=O)c2cn3cc(C(F)(F)F)cc(Cl)c3n2)c(Cl)c1 [Compound 130] | ≥ 50 | ≥ 50 |
| O=C(NS(=O)(=O)c1ccc(F)cc1F)c1cn2cc(C(F)(F)F)cc(Cl)c2n1 [Compound 131] | – | ≥ 50 |
| O=C(NS(=O)(=O)c1cc(F)ccc1F)c1cn2cc(C(F)(F)F)cc(Cl)c2n1 [Compound 132] | ≥ 50 | ≥ 50 |
| O=C(NS(=O)(=O)c1cc(Cl)ccc1F)c1cn2cc(C(F)(F)F)cc(Cl)c2n1 [Compound 133] | ≥ 50 | ≥ 50 |
| O=C(NS(=O)(=O)c1cccc(F)c1)c1cn2cc(C(F)(F)F)cc(Cl)c2n1 [Compound 134] | – | ≥ 50 |
| O=C(NS(=O)(=O)c1ccc(Cl)cc1F)c1cn2cc(C(F)(F)F)cc(Cl)c2n1 [Compound 136] | – | ≥ 50 |
| Cc1ccc(F)c(S(=O)(=O)NC(=O)c2cn3cc(C(F)(F)F)cc(Cl)c3n2)c1 [Compound 137] | ≥ 50 | ≥ 50 |
| COc1cccc(S(=O)(=O)NC(=O)c2cn3cc(C(F)(F)F)cc(Cl)c3n2)c1 [Compound 140] | ≥ 50 | ≥ 50 |
| O=C(NS(=O)(=O)c1cc(C(F)(F)F)ccc1F)c1cn2cc(C(F)(F)F)cc(Cl)c2n1 [Compound 143] | ≥ 50 | ≥ 50 |
| O=C(NS(=O)(=O)c1cccc(C(F)(F)F)c1)c1cn2cc(C(F)(F)F)cc(Cl)c2n1 [Compound 145] | – | ≥ 50 |
| O=C(NS(=O)(=O)c1ccc(F)cc1Br)c1cn2cc(C(F)(F)F)cc(Cl)c2n1 [Compound 149] | ≥ 50 | ≥ 50 |
| Cc1ccc(OC(F)F)cc1S(=O)(=O)NC(=O)c1cn2cc(C(F)(F)F)cc(Cl)c2n1 [Compound 151] | ≥ 50 | – |
| O=C(NS(=O)(=O)c1ncccc1Cl)c1cn2cc(C(F)(F)F)cc(Cl)c2n1 [Compound 152] | – | ≥ 50 |
| O=C(NS(=O)(=O)c1nc(C(F)(F)F)ccc1OCC(F)(F)F)c1cn2cc(C(F)(F)F)cc(Cl)c2n1 [Compound 157] | ≥ 50 | ≥ 50 |
| O=C(NS(=O)(=O)c1ncccc1C(F)(F)F)c1cn2cc(C(F)(F)F)cc(Cl)c2n1 [Compound 159] | – | ≥ 50 |
| O=C(NS(=O)(=O)c1cnccc1Cl)c1cn2cc(C(F)(F)F)cc(Cl)c2n1 [Compound 162] | ≥ 50 | ≥ 50 |
| O=C(NS(=O)(=O)c1cccnc1Cl)c1cn2cc(C(F)(F)F)cc(Cl)c2n1 [Compound 163] | ≥ 50 | ≥ 50 |
| O=C(NS(=O)(=O)c1cnc(Cl)s1)c1cn2cc(C(F)(F)F)cc(Cl)c2n1 [Compound 167] | ≥ 50 | ≥ 50 |
| Cn1cc(Cl)c(S(=O)(=O)NC(=O)c2cn3cc(C(F)(F)F)cc(Cl)c3n2)n1 [Compound 171] | – | ≥ 50 |
| Cn1ncc(S(=O)(=O)NC(=O)c2cn3cc(C(F)(F)F)cc(Cl)c3n2)c1Cl [Compound 172] | – | ≥ 50 |
| CCc1c(S(=O)(=O)NC(=O)c2cn3cc(C(F)(F)F)cc(Cl)c3n2)cnn1C [Compound 174] | – | ≥ 50 |
| Cc1nn(C)c(C)c1S(=O)(=O)NC(=O)c1cn2cc(C(F)(F)F)cc(Cl)c2n1 [Compound 175] | ≥ 50 | ≥ 50 |

| Compound | reduction in root galling, compared to solvent-treated controls (good levels of plant protection) [1] [%] | reduction in root galling, compared to solvent-treated controls (good levels of plant protection) [2] [%] |
| --- | --- | --- |
| Cc1nc(C)c(S(=O)(=O)NC(=O)c2cn3cc(C(F)(F)F)cc(Cl)c3n2)s1 [Compound 176] | ≥ 50 | ≥ 50 |
| CCn1nccc1S(=O)(=O)NC(=O)c1cn2cc(C(F)(F)F)cc(Cl)c2n1 [Compound 181] | – | ≥ 50 |
| Cn1nccc1S(=O)(=O)NC(=O)c1cn2cc(C(F)(F)F)cc(Cl)c2n1 [Compound 184] | – | ≥ 50 |
| O=C(NS(=O)(=O)c1ccco1)c1cn2cc(C(F)(F)F)cc(Cl)c2n1 [Compound 186] | – | ≥ 50 |
| O=C(NS(=O)(=O)c1cnn(Cc2ccccc2)c1)c1cn2cc(C(F)(F)F)cc(Cl)c2n1 [Compound 206] | – | ≥ 50 |
| O=C(NS(=O)(=O)c1ccccn1)c1cn2cc(C(F)(F)F)cc(Cl)c2n1 [Compound 241] | ≥ 50 | ≥ 50 |
| Cc1cccnc1S(=O)(=O)NC(=O)c1cn2cc(C(F)(F)F)cc(Cl)c2n1 [Compound 244] | – | ≥ 50 |
| O=C(NS(=O)(=O)c1cccs1)c1cn2cc(C(F)(F)F)cc(Cl)c2n1 [Compound 245] | ≥ 50 | ≥ 50 |
| O=C(NS(=O)(=O)c1ccccc1Cl)c1cn2cc(C(F)(F)F)ccc2n1 [Compound 248] | ≥ 50 | ≥ 50 |
| Cc1nn(C)cc1S(=O)(=O)NC(=O)c1cn2cc(C(F)(F)F)cc(Cl)c2n1 [Compound 251] | ≥ 50 | ≥ 50 |
| O=C(NS(=O)(=O)c1ccccc1Cl)c1cn2cc(Br)cc(Br)c2n1 [Compound 252] | ≥ 50 | ≥ 50 |
| O=C(NS(=O)(=O)c1ccccc1Cl)c1cn2cc(I)ccc2n1 [Compound 253] | – | ≥ 50 |
| O=C(NS(=O)(=O)c1ccccc1Cl)c1cn2cc(Br)ccc2n1 [Compound 257] | – | ≥ 50 |
| O=C(NS(=O)(=O)c1sccc1Br)c1cn2cc(C(F)(F)F)cc(Cl)c2n1 [Compound 258] | ≥ 50 | ≥ 50 |
| O=C(NS(=O)(=O)c1ccccc1Cl)c1cn2ccccc2n1 [Compound 259] | ≥ 50 | ≥ 50 |
| O=C(NS(=O)(=O)c1cscc1Br)c1cn2cc(C(F)(F)F)cc(Cl)c2n1 [Compound 268] | ≥ 50 | – |
| O=C(NS(=O)(=O)c1ccsc1)c1cn2cc(C(F)(F)F)cc(Cl)c2n1 [Compound 272] | ≥ 50 | ≥ 50 |
| Cc1nn(C)c(Cl)c1S(=O)(=O)NC(=O)c1cn2cc(C(F)(F)F)cc(Cl)c2n1 [Compound 274] | ≥ 50 | ≥ 50 |
| Cc1ccc(C)c(S(=O)(=O)NC(=O)c2cn3cc(Br)cc(Br)c3n2)c1 [Compound 279] | ≥ 50 | ≥ 50 |
| Cc1ccc(C)c(S(=O)(=O)NC(=O)c2cn3cc(C#N)ccc3n2)c1 [Compound 285] | – | ≥ 50 |
| Cc1ccc(C)c(S(=O)(=O)NC(=O)c2cn3cc(C(F)(F)F)ccc3n2)c1 [Compound 292] | ≥ 50 | ≥ 50 |
| O=C(NS(=O)(=O)c1ccccc1Cl)c1cn2cccc(Cl)c2n1 [Compound 294] | – | ≥ 50 |
| O=C(NS(=O)(=O)c1ccccc1F)c1cn2cc(C(F)(F)F)ccc2n1 [Compound 298] | ≥ 50 | ≥ 50 |
| Cc1ccccc1S(=O)(=O)NC(=O)c1cn2cc(C(F)(F)F)ccc2n1 [Compound 299] | – | ≥ 50 |
